Results are given in words; binding and its absence hold for the method and conditions named. Some entries that bind do so weakly or less than the wild type.
Target: tau paired helical filaments (TAU PHF) isolated from AD brain homogenates (UniProt P10636)
Experiment: SPR, antibody at 66.7 nM

By UniProt entry, the sequences of proteins in these tests, tags left out. Where a name states a change or a piece, a line headed by the entry shows the natural chain unless it says otherwise. Chains listed by the source or under a name are the forms on record and can include a tag or linker.
tau paired helical filaments (TAU PHF) isolated from AD brain homogenates (P10636, form named): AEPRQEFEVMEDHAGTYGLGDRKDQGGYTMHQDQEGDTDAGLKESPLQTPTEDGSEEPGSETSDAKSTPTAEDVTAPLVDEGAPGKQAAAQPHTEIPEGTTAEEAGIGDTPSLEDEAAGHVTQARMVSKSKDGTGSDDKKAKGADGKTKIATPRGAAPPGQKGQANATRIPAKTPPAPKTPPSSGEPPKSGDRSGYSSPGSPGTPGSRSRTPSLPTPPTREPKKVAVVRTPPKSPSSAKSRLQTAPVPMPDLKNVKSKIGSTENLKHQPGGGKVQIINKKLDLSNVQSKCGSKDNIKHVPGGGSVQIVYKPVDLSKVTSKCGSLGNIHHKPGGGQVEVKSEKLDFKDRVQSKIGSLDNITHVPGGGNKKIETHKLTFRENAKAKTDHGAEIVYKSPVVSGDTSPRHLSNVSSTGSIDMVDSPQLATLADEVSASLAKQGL

- binding: binds
B1: ALZ.4G1 (antibody, V domains shown)
VH: EEHLVESGGALVQPGGSLRLSCEASGFTFRSYWMTWVRQAPGKGLEWLANIKQDGSDYYYVDSVKGRFTISRDNAKNTLYLQMNNLRADDTAVYFCARDARYRDTTWPQYYFYYFMDVWGKGTTVTVSS
VL: DIQLTQSPSSLSASIGDRVTVTCRASQSISNYLNWYQQKPGKAPKLLIYAASNLHTGVPSRFSGSGSGTHFTLTISSLQPEDFATYYCQLSYNNPRTFGPGTTVDIR

— patent US20220227846A1
